The chains are these.
B1: il2ra_site2_2erj_normal_mot_HHH_b1_05749_af2_000000058_0001_23_39_H_._HHH_b2_00323_0001_0000100013_0000001_1 (protein)
chain: SSSSSEIREEVERLLEEARELLEEGDLEEAFRVADEALHLASEARDQELLELILEFLEEHSSSSS
B2: il2ra_site2_3nfp_sap_22_mot_ems_3hM_1278_af2_000000151_0001_43_60_H_._HHH_b2_04893_0001_0000100005_0000001_0_0001 (protein)
chain: SSSSSEELEELIEQARELLEEGDKYEAAQVVLRASRLALELNDPEAARRILELFEEIQRTSSSSS
B3: il2ra_site1_3nfp_normal_mot_HHH_b1_04931_000000291_0001_38_56_H_._HHH_b2_05360_0001_0000400014_0000001_0_af2pred_0001_af2pred_1 (protein)
chain: SSSSDVEEEIEEFLERIEKAAKDGDPKEADELVREAAKLALQNKDEEALRLLWELLRELSGSSSS
B4: il2ra_site2_2erj_sap_28_mot_ems_3hC_1315_af2_000000245_0001_45_63_H_._HHH_b2_04234_af2_0001_0000200007_0000001_0_0001 (protein)
chain: SSSSDEEEERVRELLEQAEELLERGNPEEAFRVLVEALQVASESNDPELEQLVFEAFERLVSSSS
B5: il2ra_site1_2b5i_normal_mot_HHH_b2_04910_000000118_0001_1_19_H_._HHH_b2_05414_0001_0000100006_0000001_0_af2pred_0001_af2pred_1 (protein)
chain: SSSSSDEELRRLLEEADEAAKNGNPEEAEKILEEAEKLAEEANDRSLRRAIEAILKMIKGSSSSS
B6: il2ra_site1_3nfp_normal_mot_HHH_b1_08149_af2_000000062_0001_43_57_H_._dd443d7604b6d6bd5a4a0e45f49110ec_0001_1_af2_0001_0000600033_0000001_0_af2pred_0001_af2pred … (protein)
chain: DELVEKLEEAIKRGDPRLVSELLRELAERIREGDPEARELREEAERLLEESGNPLAVLLLRRLES
B7: il2ra_site1_3nfp_sap_23_mot_HHH_b1_02174_af2_000000014_0001_1_18_H_._HHH_b1_01029_af2_0001_0000100006_0000001_0_0001_af2pred_0001_af2pred_swapped (protein)
chain: SSSSSEETKEAEELLKEILKLLREGNPEEAQRLIEELERLAKEANSRALKWLVEVLQKELNSSSS
B8: il2ra_site2_2erj_sap_28_mot_ca9fcc9ace360711d783d1260e4fbff1_0001_1_af2_000000007_0001_15_32_H_._HHH_b2_02269_0001_0000300005_0000001_1_0001_af2pred_0001_af2pre … (protein)
chain: SFIEIEIEDELAAKAVSRFAKWAGVEVEENGKSVTVEVPDPELAKFVEEAARQIEPEVQVRTSGS
B9: il2ra_site2_3nfp_sap_18_mot_HHH_b2_06150_000000217_0001_39_53_H_._HHH_b1_05319_af2_0001_0000300014_0000001_0_0001 (protein)
chain: SSSSDEEERVRELLKEAQEALEKGNPEEARRILQEAAQLAFELNDSELFYLIAELLLKVVKSSSS
B10: il2ra_site2_2erj_normal_mot_HHH_b1_08231_000000052_0001_20_37_H_._HHH_b1_04928_0001_0000400007_0000001_0 (protein)
chain: SSSDLEERVEELLERAEELLKEGNPEEALELLSEAYAIVYELGDDELVAEVLELAAEIVRAISSS
B11: il2ra_site1_1z92_normal_mot_7891c0d1f2c7eedbb314a075540956e2_0001_1_af2_000000230_0001_54_65_H_._HHH_b1_04373_af2_0001_0000400030_0000001_1 (protein)
chain: SSSSSSSEVEEIVKEIVEKFGLNERQKEKLEKLAEEFLERGADPEAIRYALEVAAKFLRSSSSSS
B12: il2ra_site1_2b5i_normal_mot_HHH_b2_04910_000000118_0001_1_19_H_._HHH_b1_02607_0001_0000400026_0000001_1_af2pred_0001_af2pred_1 (protein)
chain: SSSSDQEELEELLREANELFKNGDPEEARRVLEEAIELAREAGDRALLRFLEVALKIIEASSSSS
B13: il2ra_site2_3nfp_normal_mot_HHH_b1_08081_af2_000000020_0001_38_50_H_._HHH_b2_06530_0001_0000300035_0000001_0 (protein)
chain: SSSDEAREYLKAVIELARLLLERGDPEFAKRIVKMAVQLARDRGDEELLKEAEELEEEIEKSSSS
B14: il2ra_site1_3nfp_sap_16_mot_HHH_b2_02463_000000293_0001_1_19_H_._HHH_b2_04275_0001_0000500033_0000001_0_0001 (protein)
chain: SSSSTEELEELLRLVEEAYRAAQEGDEELVEELLEEAEELARKLGDKIAQRLLKDIKENTSSSSS
B15: il2ra_site1_1z92_sap_7_mot_35b94aac26684153dbcc4bf06a514b74_0001_1_000000013_0001_17_31_H_._2c46b57de5df830a699d451437f22a7b_0001_0001_0000200026_0000001_0_0001 … (protein)
chain: SLEEELRELLKELGIPPEEIEAILRDLERAERFAGDPKRALKMLLRALESLGDPAAEAVRELLER
B16: il2ra_site1_2b5i_normal_mot_22370d59370c406a0c205a431f537cfa_0001_af2_000000027_0001_1_31_H_._HHH_b2_03163_af2_0001_0000200016_0000001_0 (protein)
chain: SSSSNELARFATEVVWRLIYRLGLSREQAQRLNRIASELVWRGFSEEEIEEILQEEAEELKSSSS
B17: il2ra_site1_3nfp_normal_mot_HHH_b1_05070_af2_000000282_0001_43_57_H_._f36904accf409f30af2549b3cc9a15d7_0001_1_0001_0000100005_0000001_0 (protein)
chain: SLEEELEELLREYLPPKEIKVVVYFARMAAKALNDPKEALERLLKAAERLNNPDLERVLRELLEK
B18: il2ra_site1_2b5i_normal_mot_HHH_b2_08262_af2_000000095_0001_1_15_H_._HHH_b1_05819_af2_0001_0000200018_0000001_1_af2pred_0001_af2pred_1 (protein)
chain: SSSSSSDQEATELYLEASRLFLNGNPEEAKEILEEALEEAEKAGDEVAQRDIRKFLELLKSSSSS
B19: il2ra_site2_2erj_sap_19_mot_HHH_b1_00071_af2_000000225_0001_40_56_H_._HHH_b2_05943_af2_0001_0000400009_0000001_0_0001 (protein)
chain: SSSSDEEVRELIREAEELLERGNPEEALEVVREAATIAFQEGDFELFSILAELTEEIARTSSSSS

This is one part of the list.

In this assay the target is il2ra, P01589. The assay is described as follows: yeast display titration.
Turning to B1, the “apparent Kd” value was “inactive: no binding seen”.

With B2, the “apparent Kd” value is “inactive: no binding seen”.

In the case of B3, the “apparent Kd” value is “inactive: no binding seen”.

For the molecule B4, the “apparent Kd” value is “inactive: no binding seen”.

For B5, the “apparent Kd” value is “inactive: no binding seen”.

Regarding B6, the “apparent Kd” value was “inactive: no binding seen”.

For B7, the “apparent Kd” value was “inactive: no binding seen”.

With B8, the “apparent Kd” value was “inactive: no binding seen”.

Take B9: the “apparent Kd” value was “inactive: no binding seen”.

Regarding B10, the “apparent Kd” value is “inactive: no binding seen”.

As to B11, the “apparent Kd” value is “inactive: no binding seen”.

Regarding B12, the “apparent Kd” value is “inactive: no binding seen”.

In the case of B13, the “apparent Kd” value is “inactive: no binding seen”.

On to B14, for which the “apparent Kd” value was “inactive: no binding seen”.

Turning to B15, the “apparent Kd” value was “inactive: no binding seen”.

Regarding B16, the “apparent Kd” value was “inactive: no binding seen”.

For the molecule B17, the “apparent Kd” value is “inactive: no binding seen”.

As for B18, the “apparent Kd” value was “inactive: no binding seen”.

As to B19, the “apparent Kd” value is “inactive: no binding seen”.
